Laboratory results reported in paper PMC11368183.
No constants are given. Whether binding was seen depends on the method and setting. In cells and extracts the contact can be indirect. Some results given as binding are weak or reduced against the parent protein; the word gives no strength. Sequences can lack the tags named with a protein.

Target: T1, FLAG-Lin (Lines) (Drosophila) (UniProt Q9V4Z9)
T1 sequence: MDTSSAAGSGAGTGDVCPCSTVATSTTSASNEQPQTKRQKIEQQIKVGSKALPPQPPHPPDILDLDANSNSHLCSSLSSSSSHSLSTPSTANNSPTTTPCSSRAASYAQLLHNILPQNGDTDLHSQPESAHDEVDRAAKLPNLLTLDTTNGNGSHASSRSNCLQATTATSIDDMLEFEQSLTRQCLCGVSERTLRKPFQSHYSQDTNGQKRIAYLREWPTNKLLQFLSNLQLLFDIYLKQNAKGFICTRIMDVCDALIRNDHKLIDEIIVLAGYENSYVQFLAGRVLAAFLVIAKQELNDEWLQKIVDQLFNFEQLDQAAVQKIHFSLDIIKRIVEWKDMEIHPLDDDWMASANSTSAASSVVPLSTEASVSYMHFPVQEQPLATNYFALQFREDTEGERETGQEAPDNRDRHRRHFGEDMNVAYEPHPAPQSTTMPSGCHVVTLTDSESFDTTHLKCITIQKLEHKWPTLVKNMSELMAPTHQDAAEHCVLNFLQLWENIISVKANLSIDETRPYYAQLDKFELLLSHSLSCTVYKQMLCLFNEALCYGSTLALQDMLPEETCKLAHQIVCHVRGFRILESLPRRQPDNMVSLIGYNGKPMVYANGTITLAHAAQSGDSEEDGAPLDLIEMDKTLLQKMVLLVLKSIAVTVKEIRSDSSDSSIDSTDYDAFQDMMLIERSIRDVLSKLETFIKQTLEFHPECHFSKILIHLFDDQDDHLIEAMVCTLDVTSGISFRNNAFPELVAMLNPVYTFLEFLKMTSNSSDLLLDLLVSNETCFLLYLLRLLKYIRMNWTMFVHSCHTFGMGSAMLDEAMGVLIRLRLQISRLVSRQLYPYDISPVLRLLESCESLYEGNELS
Assay: co-IP; S2R+ cells expressing Lin and Bowl without or with coexpressed Drm; cells treated with PS-341 (Figure 4G)

B1: Drumstick (Drm) (protein, UniProt Q9VQS6 1-81)
chain: MFAVMRIDNDDCRSDFRRKMRPKCEFICKYCQRRFTKPYNLMIHERTHKSPEITYSCEVCGKYFKQRDNLRQHRCSQCVWR
In the case of B1, the binding is reported as “binds”.
